No constants are given. Whether binding was seen depends on the method and setting. A result given as binding can be weak or reduced; the word gives no strength.
What was measured:
[1] = molecular target: BdCOPT4 (Brachypodium distachyon) (UniProt I1IQG8); experiment: two-hybrid; split-ubiquitin membrane yeast two-hybrid (MYTH); bait COPT-Cub-PLV in THY.AP4, prey COPT-NubG in THY.AP5; diploid cells, 2 days of growth on SC medium lacking adenine and histidine; verified by beta-galactosidase assay
[2] = molecular target: BdCOPT3 (Brachypodium distachyon) (UniProt I1HS28); experiment: as above

Amino acid sequences for entries named in this document (tags omitted). A change or cut given only in a name is not applied to a line headed by its entry.
UniProt I1IQG8: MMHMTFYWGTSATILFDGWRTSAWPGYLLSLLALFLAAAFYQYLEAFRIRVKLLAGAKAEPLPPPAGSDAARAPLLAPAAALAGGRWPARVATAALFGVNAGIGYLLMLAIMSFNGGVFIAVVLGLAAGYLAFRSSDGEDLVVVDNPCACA
UniProt I1HS28: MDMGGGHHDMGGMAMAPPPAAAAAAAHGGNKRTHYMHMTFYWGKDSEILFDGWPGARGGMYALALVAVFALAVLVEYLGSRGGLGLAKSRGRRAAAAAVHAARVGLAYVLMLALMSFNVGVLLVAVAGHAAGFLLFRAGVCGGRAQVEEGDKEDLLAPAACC
UniProt I1GT99: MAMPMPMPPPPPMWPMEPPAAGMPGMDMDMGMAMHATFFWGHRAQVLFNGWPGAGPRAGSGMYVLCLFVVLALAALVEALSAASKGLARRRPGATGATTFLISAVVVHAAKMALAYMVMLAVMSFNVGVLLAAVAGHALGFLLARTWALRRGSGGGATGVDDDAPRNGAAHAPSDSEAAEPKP

binding [1] | binding [2] | Substance
binds | binds | BdCOPT1 (from UniProt I1GT99)
binds | – | BdCOPT3 (from UniProt I1HS28)

Source: PMC4039008
